# Measurements taken from PubChem BioAssay AID445 (National Center for Advancing Translational Sciences (NCATS), 2006).
# “And” between values parts separate entries of the source, which are not always exact repeats. Identical values can stand only once. Some of the results follow. These are further read-outs of the screen, such as a control signal, another cell line or another target. No call is given for them. Compounds called inactive in the main read-out are mostly missing here. Words in brackets tell the shape of the fitted curve; partial curves, single points and poor fits give uncertain potencies.
# Test: IkB Signaling
# Details: ABC-DLBCL IkBa-CBG/CBR dual luciferase ratio (green luciferase fused to IkBa over red control in OCI-Ly3 lymphoma cells), 4 h
# Procedure, shortened: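 Curves were fitted separately to fusion (green), unfused (red) and ratio luminescence, then classed by r2, magnitude and activity. Cells: OCI-Ly3, 4 h compound plus doxycycline at 37C; 10 uM MG-132 defined full response.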
# [1] = measured here: control luc red channel unless noted
smiles,measurement,setting,value
COc1ccc(C2CC(=O)Nc3ccccc3S2(=O)=O)cc1OC (stereo unspecified),AC50,[1],"20 µM [falling, partial curve]"
O=C(Nc1ccc(F)c(Cl)c1)c1ccc2c(=O)n3c(nc2c1)CCCCC3,AC50,[1],"3.98 µM [falling, partial curve]"
CC(C)N(CCC(=O)c1ccc2ccccc2c1)Cc1ccccc1,AC50,measured here: IkB-luc green channel,"20 µM [falling, full curve, poor fit]"
same,AC50,measured here: control luc red channel,"7.94 µM [falling, full curve] and 3.98 µM [falling, partial curve]"
COc1ccc(Cn2c(=O)oc3ccc(C)cc32)cc1OC,AC50,[1],"7.94 µM [falling, partial curve]"
CCS(=O)(=O)N1CCc2cc(C(=O)Nc3cc(C(F)(F)F)ccc3Cl)ccc21,AC50,[1],"10 µM [falling, partial curve]"
CCOc1cc(C(=O)N2CCC(c3ccncc3)CC2)cc(OCC)c1OCC,AC50,[1],"3.16 µM [rising, partial curve, poor fit]"
COc1ccc(Cl)cc1NC(=O)CSc1nc(-c2ccco2)cc(C(F)(F)F)n1,AC50,[1],"25.1 µM [falling, single point]"
CCCCN(c1ccccc1)S(=O)(=O)c1ccc2c(c1)CC(C)N2C(=O)C1CC1 (stereo unspecified),AC50,[1],"5.01 µM [falling, partial curve]"
CCc1ccccc1Nc1nc2ccccc2n2cnnc12,AC50,[1],"7.94 µM [falling, full curve]"
CCOC(=O)C1CCN(C(c2cccs2)c2sc3nc(C)nn3c2O)CC1 (stereo unspecified),AC50,[1],"31.6 µM [rising, partial curve] [measured here: IkB-luc green channel]"
CCOC(=O)c1ccc(NC(=O)COC(=O)c2cn(CC)c3nc(C)ccc3c2=O)cc1,AC50,[1],"0.251 µM [rising, full curve, poor fit]"
Cc1cccc(C)c1OC(=O)CSc1nnc(-c2cccs2)o1,AC50,[1],"10 µM [falling, partial curve]"
COc1ccc(OC)c(NS(=O)(=O)c2ccc3[nH]c4c(c3c2)CCCCC4)c1,AC50,[1],"20 µM [falling, partial curve]"
Cc1ccc(F)c(NC(=O)Nc2ccc3snnc3c2)c1,AC50,[1],"1.58 µM [rising, full curve]"
Cc1ccc(C(C)NC(=O)c2cc(C)oc2C)cc1 (stereo unspecified),AC50,[1],"12.6 µM [falling, partial curve]"
Cc1ccc2c(c1)nnn2C1CCN(S(=O)(=O)c2cccc(S(=O)(=O)N(C)C)c2)CC1,AC50,[1],"31.6 µM [falling, single point]"
O=C1c2[nH]nc(-c3ccccc3O)c2C(c2cccc(Cl)c2)N1Cc1cccnc1 (stereo unspecified),AC50,[1],"20 µM [falling, partial curve]"
CCOC(=O)c1sc(NC(=O)CSc2n[nH]c(-c3ccccc3)n2)c(C#N)c1C,AC50,[1],"3.16 µM [falling, full curve]"
O=C(c1ccc(CSc2nc3ccncc3n2Cc2cccc(F)c2)cc1)N1CCCCC1,AC50,[1],"15.8 µM [falling, partial curve]"
CN(Cc1ccccc1)Cc1nc2c(c(=O)n(C)c(=O)n2C)n1CCCc1ccccc1,AC50,[1],"15.8 µM [falling, partial curve]"
CCOC(=O)c1c(C)oc2ccc(N(C(=O)c3ccncc3)S(=O)(=O)c3ccc(Br)cc3)cc12,AC50,[1],"12.6 µM [falling, partial curve]"
CC1=C(c2ccc(C(C)C)cc2)S(=O)(=O)NC1=NCc1ccccc1Br,AC50,[1],"15.8 µM [falling, single point]"
Cc1nn(Cc2ccc(Cl)cc2)c(C)c1NC(=O)c1noc2c1CCCCC2,AC50,[1],"6.31 µM [falling, partial curve]"
CC(=O)c1nc2ccccc2n1S(=O)(=O)c1ccc(C)cc1,AC50,[1],"3.98 µM [falling, partial curve]"
CCOc1ccc(CCNC(=O)Cn2ncc3c(=O)oc4ccc(C)cc4c32)cc1,AC50,[1],"39.8 µM [falling, single point]"
CCOc1cc2[nH]c(=O)n(CCCC(=O)N3CCN(c4ccc(OC)cc4)CC3)c(=O)c2cc1OCC,AC50,[1],"0.01 µM [rising, full curve]"
Cc1ccc(CN2CCN(CC(=O)NCc3ccc(Cl)cc3)C2=O)cc1,AC50,[1],"15.8 µM [falling, partial curve]"
CCN(CCNC(=O)Nc1ccc(Cl)cc1)c1ccccc1,AC50,[1],"20 µM [falling, partial curve]"
N=c1n(CCN2CCCCC2)c2ccccc2n1CC(O)COc1ccc(Cl)cc1Cl (stereo unspecified),AC50,[1],"25.1 µM [falling, partial curve]"
CCN(C1CCCCC1)S(=O)(=O)c1ccc(S(=O)(=O)NCc2ccncc2)cc1,AC50,[1],"12.6 µM [falling, partial curve]"
CCc1cccc(C)c1NC(=O)CSc1nc2ccccc2nc1N1CCOCC1,AC50,[1],"25.1 µM [falling, single point]"
COc1ccc(Cn2c(SCc3ccc(C(=O)NCc4cccs4)cc3)nc3cccnc32)cc1,AC50,[1],"20 µM [falling, single point]"
COc1ccccc1CN1C(=O)CN(C2CCCCCC2)C(=O)C1c1ccc(C)cc1 (stereo unspecified),AC50,[1],"39.8 µM [falling, single point]"
C=CCn1c(COc2ccc(Cl)cc2)nnc1SCc1ccc(C#N)cc1,AC50,[1],"7.94 µM [falling, partial curve]"
CCOC(=O)c1cc(-c2ccc(C)cc2)n(CCC(=O)Nc2ccc(C(C)C)cc2)c1C,AC50,[1],"12.6 µM [falling, partial curve]"
CC(=O)c1ccc(OCCCC(=O)N2CCN(S(=O)(=O)c3cccs3)CC2)cc1,AC50,[1],"12.6 µM [falling, partial curve]"
Cc1ccc(Cl)cc1NC(=O)CC(O)(C(F)(F)F)C(F)(F)F,AC50,[1],"3.98 µM [falling, full curve, poor fit]"
Cc1cccc(NC(=O)CS(=O)(=O)c2nc(-c3ccccc3)cn2-c2cccc(Cl)c2)c1C,AC50,[1],"7.94 µM [falling, partial curve]"
O=C(Nc1ccc2nc(-c3cccs3)[nH]c2c1)c1cccs1,AC50,[1],"12.6 µM [falling, partial curve]"
O=C(NC1CC(=O)N(c2ccc(Cl)cc2)C1)c1ccc2c(c1)OCO2 (stereo unspecified),AC50,[1],"6.31 µM [rising, single point]"
